# Record: PubChem BioAssay AID493246 (Drosophila RNAi Screening Center, 2011)
# Purpose: 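Identify essential fly genes by loss of cell viability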 (primary screen)
# System: Drosophila Kc and S2R+ cells
# Knock-down reagent: long dsRNA against Drosophila genes
# Detection: 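Raw, unnormalised count of remaining cells in each well; per-plate z-scores of cell number underlie the calls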
# Scale: Kc cell number and S2R+ cell number: higher = more cells remaining
# Rule for the call: 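Active when the per-plate z-score of cell number is 3 or more in the direction of fewer cells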
# In all, the deposit lists about 21,000 reagents; this is a random part of those with a known target gene and a result. Over the whole deposit, 429 (2%) were called active. 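Values are raw and not normalised between plates; calls rest on per-plate z-scores that were not deposited.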 Names joined by + are all predicted targets of the reagent. Not stated in the record: the amount of reagent, the time to read-out.
predicted target,DRSC id,"Kc cell number, rep 1","Kc cell number, rep 2","S2R+ cell number, rep 1","S2R+ cell number, rep 2",activity call
CG15083,DRSC06514,1.74e6,1.75e6,1.21e6,1.40e6,inactive
CG30380,DRSC05069,1.46e6,1.58e6,1.02e6,1.11e6,inactive
alphaSnap,DRSC11285,1.58e6,1.64e6,8.50e5,9.19e5,inactive
byn,DRSC11332,1.40e6,1.59e6,1.23e6,1.34e6,inactive
CG10505,DRSC04075,1.58e6,1.66e6,1.27e6,3.08e5,inactive
Gdap2,DRSC06789,1.69e6,1.73e6,1.40e6,1.61e6,inactive
Gdap2,DRSC06790,1.63e6,1.67e6,1.38e6,1.57e6,inactive
wit,DRSC08741,1.31e6,1.38e6,1.25e6,1.14e6,inactive
CG7728,DRSC10907,1.45e6,1.58e6,1.14e6,1.19e6,inactive
CG34236,DRSC05435,1.47e6,1.47e6,9.67e5,1.16e6,inactive
CG18809,DRSC19818,1.51e6,1.53e6,1.07e6,1.11e6,inactive
CG14961,DRSC08420,1.44e6,1.30e6,9.95e5,1.18e6,inactive
CG42809 + CG42810,DRSC02532,1.55e6,1.71e6,1.19e6,1.30e6,inactive
CG42809 + CG42810,DRSC02533,1.50e6,1.59e6,1.17e6,1.24e6,inactive
CG12692,DRSC17881,1.52e6,1.55e6,1.02e6,1.21e6,inactive
tos,DRSC03624,1.30e6,1.37e6,1.23e6,1.26e6,inactive
c12.1,DRSC18750,1.45e6,1.62e6,9.30e5,1.09e6,inactive
dlg1,DRSC18895,1.17e6,1.14e6,7.85e5,9.08e5,inactive
dlg1,DRSC18896,1.48e6,1.60e6,1.08e6,1.20e6,inactive
dlg1,DRSC19767,1.63e6,1.64e6,1.04e6,1.12e6,inactive
dlg1,DRSC20324,5.91e5,,8.06e5,,inactive
Ocrl,DRSC18576,5.57e5,,7.27e5,,inactive
CG12923,DRSC06237,1.51e6,1.47e6,1.24e6,1.35e6,inactive
mmm,DRSC10208,1.59e6,1.62e6,1.15e6,1.23e6,inactive
Zip89B,DRSC16128,1.34e6,1.39e6,1.17e6,1.35e6,inactive
rpk,DRSC12386,1.72e6,1.70e6,1.42e6,1.57e6,inactive
CG4462,DRSC15583,1.51e6,1.60e6,1.14e6,1.22e6,inactive
pirk,DRSC04269,1.51e6,1.58e6,1.25e6,3.39e5,inactive
CG7295,DRSC00699,1.41e6,1.48e6,1.04e6,1.18e6,inactive
Dera,DRSC07207,1.39e6,1.43e6,1.19e6,1.28e6,inactive
CG14696,DRSC14919,1.59e6,1.63e6,1.33e6,1.45e6,inactive
Bin1,DRSC16843,1.18e6,1.25e6,1.12e6,1.29e6,inactive
CG1582,DRSC19732,5.41e5,,8.51e5,,inactive
Fpgs1,DRSC19857,1.56e6,1.52e6,1.07e6,1.17e6,inactive
sala,DRSC03605,1.71e6,1.66e6,1.23e6,1.47e6,inactive

No new results follow: 4 of the entries above.
predicted target,DRSC id,"Kc cell number, rep 1","Kc cell number, rep 2","S2R+ cell number, rep 1","S2R+ cell number, rep 2",activity call
mmm,DRSC10208,1.59e6,1.62e6,1.15e6,1.23e6,inactive
Zip89B,DRSC16128,1.34e6,1.39e6,1.17e6,1.35e6,inactive
rpk,DRSC12386,1.72e6,1.70e6,1.42e6,1.57e6,inactive
CG4462,DRSC15583,1.51e6,1.60e6,1.14e6,1.22e6,inactive

Further entries follow:
predicted target,DRSC id,"Kc cell number, rep 1","Kc cell number, rep 2","S2R+ cell number, rep 1","S2R+ cell number, rep 2",activity call
mAChR-A,DRSC04702,1.75e6,1.88e6,1.15e6,1.28e6,inactive
mir-210 (retired record),DRSC19230,1.22e6,1.42e6,1.07e6,1.13e6,inactive
CG5079,DRSC15713,1.26e6,1.37e6,6.50e5,7.35e5,active
Rad9,DRSC11263,1.58e6,1.61e6,1.32e6,1.38e6,inactive
Lst8,DRSC18262,5.93e5,,9.84e5,,inactive
CG5262,DRSC11773,1.44e6,1.46e6,1.25e6,1.33e6,inactive
CG13748,DRSC06419,1.49e6,1.60e6,1.23e6,1.27e6,inactive
hyx,DRSC14462,1.33e6,1.46e6,9.55e5,1.03e6,inactive
CG6674,DRSC10692,1.23e6,1.29e6,1.44e6,1.08e6,inactive
Pmvk,DRSC02032,1.63e6,1.68e6,1.37e6,5.66e5,inactive
dgt4,DRSC18659,1.57e6,1.47e6,1.00e6,1.13e6,inactive
SmydA-8,DRSC18797,1.56e6,1.61e6,1.07e6,1.20e6,inactive
CG13218,DRSC06340,1.60e6,1.59e6,1.27e6,1.37e6,inactive
CG34278,DRSC13208,1.61e6,1.75e6,1.10e6,1.29e6,inactive
dar1,DRSC08049,1.49e6,1.38e6,9.43e5,1.12e6,inactive
dar1,DRSC08233,1.11e6,1.28e6,9.54e5,1.19e6,inactive
CG12325,DRSC06130,1.30e6,1.35e6,1.21e6,1.21e6,inactive
CG10853,DRSC08164,1.31e6,1.27e6,9.60e5,1.15e6,inactive
PH4alphaNE3,DRSC16541,5.69e5,,8.44e5,,inactive
Acp32CD,DRSC01858,1.55e6,1.67e6,1.29e6,1.43e6,inactive
Cdk1,DRSC03504,1.23e6,1.42e6,8.47e5,9.05e5,inactive
Nup358,DRSC14410,1.17e6,1.33e6,1.13e6,1.34e6,inactive
Ir64a,DRSC09759,1.30e6,1.40e6,1.14e6,1.12e6,inactive
Ir64a,DRSC09760,1.40e6,1.23e6,1.21e6,1.15e6,inactive
